Assay results: ChEMBL document CHEMBL4834450, “Design, synthesis and antimicrobial activity of novel 2-aminothiophene containing cyclic and heterocyclic moieties” (2021)

Columns and labels:
[1] = system: Escherichia coli; experiment: Antibacterial activity against Escherichia coli MTCC442 at 5 ug/ml; assay type: functional; conditions: dose 5.0 µg/ml
[2] = system: Pseudomonas aeruginosa; experiment: Antibacterial activity against Pseudomonas aeruginosa MTCC441 at 5 ug/ml; assay type: functional; conditions: dose 5.0 µg/ml

GENTAMICIN
inhibition zone (IZ) [1]: 19.9 mm | inhibition zone (IZ) [2]: 17.3 mm
